For one substance, binding results are on record in PMC10627516.

By UniProt entry, the sequences of proteins in these tests, tags left out.
UniProt P47806: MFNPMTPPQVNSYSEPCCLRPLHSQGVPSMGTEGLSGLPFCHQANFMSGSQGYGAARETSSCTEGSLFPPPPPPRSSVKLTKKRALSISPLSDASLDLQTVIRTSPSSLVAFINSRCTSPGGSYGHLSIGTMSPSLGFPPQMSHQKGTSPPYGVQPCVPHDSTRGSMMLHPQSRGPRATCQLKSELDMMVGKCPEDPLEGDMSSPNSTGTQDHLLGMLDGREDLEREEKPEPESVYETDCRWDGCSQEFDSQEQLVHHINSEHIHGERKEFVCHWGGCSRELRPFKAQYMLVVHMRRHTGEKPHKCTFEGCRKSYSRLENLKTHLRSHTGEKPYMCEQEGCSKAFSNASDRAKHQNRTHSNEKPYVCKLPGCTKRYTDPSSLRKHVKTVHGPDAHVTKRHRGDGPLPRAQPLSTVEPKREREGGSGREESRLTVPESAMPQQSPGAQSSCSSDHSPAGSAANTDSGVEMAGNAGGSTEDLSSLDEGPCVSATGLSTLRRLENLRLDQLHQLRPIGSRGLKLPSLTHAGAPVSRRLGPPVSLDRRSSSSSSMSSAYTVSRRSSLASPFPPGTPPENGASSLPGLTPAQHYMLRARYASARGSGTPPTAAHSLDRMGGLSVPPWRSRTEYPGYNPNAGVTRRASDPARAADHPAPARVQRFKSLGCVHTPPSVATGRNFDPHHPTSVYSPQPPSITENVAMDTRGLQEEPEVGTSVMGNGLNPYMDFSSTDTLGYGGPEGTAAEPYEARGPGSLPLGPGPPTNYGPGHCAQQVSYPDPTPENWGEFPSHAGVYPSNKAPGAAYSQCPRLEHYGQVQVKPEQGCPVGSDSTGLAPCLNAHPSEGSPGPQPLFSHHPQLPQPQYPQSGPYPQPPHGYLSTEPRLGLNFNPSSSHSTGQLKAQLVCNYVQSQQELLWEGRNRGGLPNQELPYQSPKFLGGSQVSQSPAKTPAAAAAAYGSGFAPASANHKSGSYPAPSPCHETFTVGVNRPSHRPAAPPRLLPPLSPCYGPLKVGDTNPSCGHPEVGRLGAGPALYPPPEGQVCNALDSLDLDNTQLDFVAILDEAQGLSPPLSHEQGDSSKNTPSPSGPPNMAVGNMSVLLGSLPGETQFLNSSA
UniProt P13864: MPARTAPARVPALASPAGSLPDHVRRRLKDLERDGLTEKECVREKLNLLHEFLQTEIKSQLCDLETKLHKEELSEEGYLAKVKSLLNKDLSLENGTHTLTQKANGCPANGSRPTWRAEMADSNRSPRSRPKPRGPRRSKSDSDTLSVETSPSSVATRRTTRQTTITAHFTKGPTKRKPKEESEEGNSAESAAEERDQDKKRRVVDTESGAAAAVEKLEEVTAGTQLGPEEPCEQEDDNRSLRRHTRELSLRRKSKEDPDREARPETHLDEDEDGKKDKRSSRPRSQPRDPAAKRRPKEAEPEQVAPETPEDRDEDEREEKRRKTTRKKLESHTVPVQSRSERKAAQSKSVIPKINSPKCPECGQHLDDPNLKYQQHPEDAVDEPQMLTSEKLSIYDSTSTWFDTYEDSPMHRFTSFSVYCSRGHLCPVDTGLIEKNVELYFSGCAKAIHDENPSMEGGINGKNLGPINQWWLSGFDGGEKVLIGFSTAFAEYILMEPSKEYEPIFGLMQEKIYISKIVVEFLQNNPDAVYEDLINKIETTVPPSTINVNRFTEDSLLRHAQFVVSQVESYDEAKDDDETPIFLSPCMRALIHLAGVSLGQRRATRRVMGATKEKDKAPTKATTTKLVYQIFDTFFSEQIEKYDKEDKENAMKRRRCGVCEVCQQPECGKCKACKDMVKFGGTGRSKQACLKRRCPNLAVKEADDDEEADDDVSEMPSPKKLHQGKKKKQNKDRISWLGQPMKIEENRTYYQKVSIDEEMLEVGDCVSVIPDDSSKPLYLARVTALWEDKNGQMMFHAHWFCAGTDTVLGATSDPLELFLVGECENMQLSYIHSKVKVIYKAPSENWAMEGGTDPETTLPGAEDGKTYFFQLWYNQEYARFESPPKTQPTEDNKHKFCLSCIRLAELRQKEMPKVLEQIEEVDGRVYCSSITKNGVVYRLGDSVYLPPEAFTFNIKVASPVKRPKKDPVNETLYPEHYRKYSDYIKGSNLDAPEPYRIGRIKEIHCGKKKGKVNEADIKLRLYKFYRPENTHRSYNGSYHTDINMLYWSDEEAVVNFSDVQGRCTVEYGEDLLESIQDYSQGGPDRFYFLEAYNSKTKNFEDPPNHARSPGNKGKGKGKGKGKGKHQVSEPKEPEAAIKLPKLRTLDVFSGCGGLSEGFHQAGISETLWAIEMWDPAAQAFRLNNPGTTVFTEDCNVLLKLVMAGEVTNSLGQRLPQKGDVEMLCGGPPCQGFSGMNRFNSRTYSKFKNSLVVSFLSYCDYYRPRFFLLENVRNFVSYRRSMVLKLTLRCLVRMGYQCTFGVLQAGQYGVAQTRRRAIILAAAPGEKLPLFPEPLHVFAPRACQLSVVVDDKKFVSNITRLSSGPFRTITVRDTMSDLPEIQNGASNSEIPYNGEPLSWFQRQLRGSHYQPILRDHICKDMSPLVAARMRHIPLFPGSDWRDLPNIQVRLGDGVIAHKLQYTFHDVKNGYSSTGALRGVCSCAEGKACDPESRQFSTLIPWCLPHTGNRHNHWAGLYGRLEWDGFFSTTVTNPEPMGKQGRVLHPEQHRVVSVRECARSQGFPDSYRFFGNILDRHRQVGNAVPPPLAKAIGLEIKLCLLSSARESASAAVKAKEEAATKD

The assay has as its target Glioma-associated oncogene homolog 1 (GLI1) (mouse (endogenous in murine macrophages, RAW264.7 or BMMs)) (UniProt P47806). Put plainly: co-IP; cells in the resting state lysed in RIPA buffer with protease inhibitor; anti-GLI1 antibody (Santa Cruz sc-515751) overnight at 4 °C, protein A agarose beads, washed with RIPA buffer; blots with DNMT1 and DNMT3a antibodies.

Results are given in words; binding and its absence hold for the method and conditions named. Binding seen in cells or lysates may run through a third protein. Some entries that bind do so weakly or less than the wild type.

For “DNA methyltransferase 1 (DNMT1) (from UniProt P13864 1-1620) (enzyme)”, the binding entry is listed as “binds”.
